Measurements reported in PubChem BioAssay AID652259 (Drosophila RNAi Screening Center, 2013).

- Test: 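Identify new Wingless signalling regulators in fly cells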 (primary screen)
- Cells: Drosophila clone 8 imaginal disc epithelial cells
- Reagents: long dsRNA against Drosophila genes
- Challenge: pathway stimulated by co-transfected Wingless expression plasmid
- Measurement: 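Dual luciferase reads per well after Wingless plasmid stimulation: reporter firefly light and Renilla control light; activity is firefly divided by Renilla, a ratio not deposited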
- Scale: firefly reporter light: higher = more Wg reporter light, before normalisation; Renilla control light: higher = more transfected or surviving cells
- Call rule: 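a knock-down is a candidate when at least two out of four statistical tests show it departing from its plate mean; one test alone signals a weak candidate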
- Calls: active = candidate regulator (raises or lowers reporter); inactive = not a candidate
In all, the deposit lists about 22,000 reagents; this is an unselected part of those that have a named target and a result. Of all reagents, 233 (1.1%) are marked active. 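Light values are raw, unnormalised plate reads; the ratio scores behind the reporter calls were not deposited.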 Unmarked entries are inactive. The numbers tell different reagents against one gene apart. A plus sign joins genes that one reagent is predicted to hit. Not stated in the record: the amount of reagent, the time to read-out, the dose of the treatment.

Target gene | reagent no. | reporter change call, replicate 1 | firefly reporter light, replicate 1 | firefly reporter light, replicate 2 | Renilla control light, replicate 1 | Renilla control light, replicate 2
CG18268 + CG3014 | 1 | – | 14025 | – | 3974 | –
Ent3 | 1 | – | 7531 | – | 3488 | –
Wdr62 | 1 | – | 27632 | – | 12955 | –
Wdr62 | 2 | – | 18441 | – | 11459 | –
Wdr62 | 3 | Wg reporter activity raised (active) | 15196 | – | 2419 | –
Wdr62 | 4 | – | 4.87e5 | 5.08e5 | 1.24e5 | 1.12e5
Nha1 | 1 | – | 14064 | – | 5365 | –
Atac2 | 1 | – | 7018 | – | 3301 | –
dom | 1 | Wg reporter activity raised (active) | 35590 | – | 1608 | –
dom | 2 | Wg reporter activity raised | 6756 | 8464 | 576 | 1468
asRNA:CR43433 + Rbp6 | 1 | – | 5768 | – | 2154 | –
lz | 1 | – | 21271 | – | 10923 | –
lz | 2 | – | 3.34e5 | 4.20e5 | 1.43e5 | 1.67e5
CG5805 | 1 | – | 3061 | 4512 | 1526 | 1734
Hr96 | 1 | – | 3321 | 5672 | 1257 | 2106
Pfdn5 | 1 | – | 4071 | 7769 | 1936 | 2457
nmo | 1 | – | 2922 | – | 438 | –
nmo | 2 | – | 3290 | – | 1186 | –
CG11170 | 1 | – | 9147 | – | 2659 | –
CG9815 | 1 | – | 2416 | 6160 | 560 | 2904
CG30412 | 1 | – | 8412 | – | 2724 | –
CG14627 | 1 | – | 20769 | – | 9993 | –
CG11398 | 1 | – | 16632 | – | 9849 | –
Kif19A | 1 | – | 3181 | – | 1077 | –
Prp5 | 1 | – | 21053 | – | 9975 | –
CG7945 | 1 | – | 3584 | – | 1383 | –
Ppt1 | 1 | – | 16298 | – | 7309 | –
Spn31A | 1 | – | 1357 | 6179 | 851 | 3429
Polr2F | 1 | – | 20696 | – | 3296 | –
CG14260 | 1 | – | 3837 | – | 2688 | –
CG18809 | 1 | – | 8523 | – | 6905 | –
Cln3 | 1 | – | 5536 | – | 2341 | –
mRpL35 | 1 | – | 30294 | – | 5959 | –
CG13603 | 1 | – | 2932 | 3624 | 900 | 1560
beat-Vc | 1 | – | 2408 | – | 981 | –
beat-Vc | 2 | – | 15942 | – | 5093 | –
PIG-Q | 1 | – | 3168 | – | 434 | –
CG3088 | 1 | – | 3722 | – | 1872 | –
CG15909 | 1 | – | 3357 | 6000 | 530 | 1501
ato | 1 | – | 13602 | – | 3570 | –
Nepl21 | 1 | – | 2269 | 3589 | 1976 | 855
VhaM9.7-c | 1 | – | 5600 | – | 1641 | –
Cep164 | 1 | – | 19224 | – | 10049 | –
CG9265 | 1 | – | 2560 | 7233 | 946 | 2773
CG9265 | 2 | – | 3584 | 7072 | 1009 | 2589
CG8635 | 1 | – | 7221 | – | 2451 | –
mago | 1 | – | 1674 | 8280 | 404 | 3136
l(3)76BDm | 1 | – | 5253 | – | 2346 | –
Ret | 1 | – | 8668 | – | 2869 | –
Ret | 2 | – | 2561 | 5228 | 979 | 2605

Just “Renilla control light, replicate 1”, for 2 of the entries above:
mago	404
l(3)76BDm	2346
